Measurements reported in PubChem BioAssay AID504764 (Drosophila RNAi Screening Center, 2011)
Screen: 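Genes whose knock-down alters Notch-dependent transcription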 (primary screen). Cells: Drosophila Kc167 cells. Reagent: long dsRNA against Drosophila genes. Timing: about 5 days (4 days dsRNA, then 24 h after transfection). Challenge: transfection of constitutively active membrane-tethered Notch lacking the extracellular domain, read 24 h later. Read-out: 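Light from a Notch-responsive E(spl)m3 luciferase reporter under active Notch, with control-promoter and no-Notch reporter wells to normalise; raw counts from paired wells a and b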. Direction: induced reporter light, run 1, well a and induced reporter light, run 1, well b: higher = more light from the Notch target reporter with active Notch; control promoter light, run 1, well a and control promoter light, run 1, well b: higher = more light from the viral control promoter (cell number, transfection, viability); uninduced reporter light, run 1, well a: higher = more light from the Notch target reporter without active Notch. Rule for the call: 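Wells with low control signal or poorly matching duplicates excluded; duplicates averaged; per source plate, z beyond ±2 for induced/control log2 ratio or beyond ±1.8 for induced/uninduced marks a hit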. Calls: active = modifier hit (raised or lowered Notch signal); inactive = not a hit.
In all, the deposit lists about 22,000 reagents; below is a random part of those that have a named target and a result. In the full data, 403 (1.9%) got an active call. 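Unnormalised raw counts per well; ratio z-scores behind the hit calls and whether each hit raises or lowers signal are not deposited.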 The record does not give: the amount of reagent.

What did the screen give for CG42445 [DRSC10858]?
induced reporter light, run 1, well a: 1.25e5; induced reporter light, run 1, well b: 1.27e5; control promoter light, run 1, well a: 71180; control promoter light, run 1, well b: 41035; uninduced reporter light, run 1, well a: 9305; call: inactive

What did the screen give for CG8360 [DRSC03085]?
induced reporter light, run 1, well a: 1.26e5; induced reporter light, run 1, well b: 1.55e5; control promoter light, run 1, well a: 77305; control promoter light, run 1, well b: 1.11e5; uninduced reporter light, run 1, well a: 18440; call: inactive

What is on record for CG12347 [DRSC14502]?
induced reporter light, run 1, well a: 1.78e5; induced reporter light, run 1, well b: 1.59e5; control promoter light, run 1, well a: 1.89e5; control promoter light, run 1, well b: 2.06e5; uninduced reporter light, run 1, well a: 14580; call: inactive

With CG10104 [DRSC05964], what was measured?
induced reporter light, run 1, well a: 1.05e5; induced reporter light, run 1, well b: 1.17e5; control promoter light, run 1, well a: 1.36e5; control promoter light, run 1, well b: 1.10e5; uninduced reporter light, run 1, well a: 11050; call: inactive

What did the screen give for CG6928 [DRSC10749]?
induced reporter light, run 1, well a: 85460; induced reporter light, run 1, well b: 91960; control promoter light, run 1, well a: 62525; control promoter light, run 1, well b: 30830; uninduced reporter light, run 1, well a: 8665; call: inactive

What did the screen give for Lcp65Ae [DRSC11212]?
induced reporter light, run 1, well a: 2.27e5; induced reporter light, run 1, well b: 2.21e5; control promoter light, run 1, well a: 2.30e5; control promoter light, run 1, well b: 2.33e5; uninduced reporter light, run 1, well a: 10230; call: inactive

What did the screen give for kz [DRSC18786]?
induced reporter light, run 1, well a: 1.23e5; induced reporter light, run 1, well b: 1.31e5; control promoter light, run 1, well a: 2.12e5; control promoter light, run 1, well b: 1.82e5; uninduced reporter light, run 1, well a: 9025; call: inactive

For CG16922 (retired record) [DRSC19758], what does the deposit list?
induced reporter light, run 1, well a: 15335; induced reporter light, run 1, well b: 14555; control promoter light, run 1, well a: 31150; control promoter light, run 1, well b: 26910; uninduced reporter light, run 1, well a: 3838; call: inactive

Sorted by “uninduced reporter light, run 1, well a” (low to high): some entries from above.
CG16922 (retired record) [DRSC19758]: induced reporter light, run 1, well a = 15335; induced reporter light, run 1, well b = 14555; control promoter light, run 1, well a = 31150; control promoter light, run 1, well b = 26910; uninduced reporter light, run 1, well a = 3838; call = inactive
kz [DRSC18786]: induced reporter light, run 1, well a = 1.23e5; induced reporter light, run 1, well b = 1.31e5; control promoter light, run 1, well a = 2.12e5; control promoter light, run 1, well b = 1.82e5; uninduced reporter light, run 1, well a = 9025; call = inactive

The listing continues.
For FoxK [DRSC09859], what does the deposit list?
induced reporter light, run 1, well a: 64090; induced reporter light, run 1, well b: 63655; control promoter light, run 1, well a: 41775; control promoter light, run 1, well b: 11720; uninduced reporter light, run 1, well a: 9365; call: inactive

For CheB74a [DRSC09503], what does the deposit list?
induced reporter light, run 1, well a: 1.76e5; induced reporter light, run 1, well b: 1.54e5; control promoter light, run 1, well a: 2.43e5; control promoter light, run 1, well b: 2.47e5; uninduced reporter light, run 1, well a: 20350; call: inactive

With CG14357 [DRSC14820], what does the deposit list?
induced reporter light, run 1, well a: 2.75e5; induced reporter light, run 1, well b: 2.53e5; control promoter light, run 1, well a: 2.50e5; control promoter light, run 1, well b: 2.65e5; uninduced reporter light, run 1, well a: 21665; call: inactive

What is on record for CG8818 [DRSC07275]?
induced reporter light, run 1, well a: 74290; induced reporter light, run 1, well b: 78700; control promoter light, run 1, well a: 56510; control promoter light, run 1, well b: 71935; uninduced reporter light, run 1, well a: 5620; call: inactive

With esg [DRSC03530], what does the deposit list?
induced reporter light, run 1, well a: 1.38e5; induced reporter light, run 1, well b: 1.38e5; control promoter light, run 1, well a: 1.68e5; control promoter light, run 1, well b: 1.71e5; uninduced reporter light, run 1, well a: 14425; call: inactive

For tst [DRSC14212], what was measured?
induced reporter light, run 1, well a: 1.44e5; induced reporter light, run 1, well b: 1.45e5; control promoter light, run 1, well a: 2.19e5; control promoter light, run 1, well b: 2.36e5; uninduced reporter light, run 1, well a: 13630; call: inactive

What is on record for Cip4 [DRSC08091]?
induced reporter light, run 1, well a: 2.64e5; induced reporter light, run 1, well b: 2.44e5; control promoter light, run 1, well a: 1.88e5; control promoter light, run 1, well b: 2.15e5; uninduced reporter light, run 1, well a: 13025; call: inactive

What is on record for Cip4 [DRSC08469]?
induced reporter light, run 1, well a: 1.14e5; induced reporter light, run 1, well b: 1.43e5; control promoter light, run 1, well a: 84390; control promoter light, run 1, well b: 26165; uninduced reporter light, run 1, well a: 7510; call: inactive

What is on record for Cip4 [DRSC21740]?
call: inactive

For CG7810 [DRSC03072], how do the results read?
induced reporter light, run 1, well a: 1.73e5; induced reporter light, run 1, well b: 2.26e5; control promoter light, run 1, well a: 1.63e5; control promoter light, run 1, well b: 1.99e5; uninduced reporter light, run 1, well a: 15960; call: inactive
